# Data source: PubChem BioAssay AID1259308 (NCATS, 2017)
# Assay: 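Candidate targets for better recombinant protein yield in mammalian cells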 (primary screen)
# Cell system: human HEK293 embryonic kidney cells stably expressing firefly luciferase (HEK-CMV-Luc2-Hygro)
# Reagents: single siRNA against human genes, 0.8 pmol siRNA per well
# Time to read-out: 72 h
# Detection: 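Reporter luminescence and viable-cell signal on separate replicate plates, given as percent of non-targeting control and median/MAD z-scores, plus per-cell luciferase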
# Scale: total luciferase, z-score and total luciferase, % of control: higher = more reporter protein produced
# Call rule: 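Active when the median/MAD z-score for overall luciferase is greater than 3; a gene was taken forward for validation with new siRNAs if at least two of its three siRNAs passed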
# Meaning of the calls: active = raised luciferase; inactive = no rise
# In all, the deposit lists about 59,000 reagents; this is a random part of them. About 1,510 of all reagents (2.6%) count as active. 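Calls use total luciferase alone and ignore viability, so some active siRNAs may act by altering cell number.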 Unmarked entries are inactive. Reagents against one gene are numbered here. Not all columns of the deposit are shown. No sequences are given here.
target gene,reagent no.,"total luciferase, z-score","total luciferase, % of control"
JAM2 (junctional adhesion molecule 2),1,1.97,121
JAM2 (junctional adhesion molecule 2),2,-1.19,58.1
JAM2 (junctional adhesion molecule 2),3,0.0277,82.4
"NFE4 (nuclear factor, erythroid 4)",1,-0.343,75.1
"NFE4 (nuclear factor, erythroid 4)",2,-1.86,44.9
"NFE4 (nuclear factor, erythroid 4)",3,0.192,85.7
ZNF414 (zinc finger protein 414),1,0.133,84.5
ZNF414 (zinc finger protein 414),2,0.0499,82.9
ZNF414 (zinc finger protein 414),3,-0.171,78.5
OR10A5 (olfactory receptor family 10 subfamily A member 5),1,0.0167,82.2
OR10A5 (olfactory receptor family 10 subfamily A member 5),2,-2.95,23.3
OR10A5 (olfactory receptor family 10 subfamily A member 5),3,1.37,109
IQGAP3 (IQ motif containing GTPase activating protein 3),1,-1.19,58.2
IQGAP3 (IQ motif containing GTPase activating protein 3),2,1.09,104
IQGAP3 (IQ motif containing GTPase activating protein 3),3,-2.02,41.7
CREBBP (CREB binding lysine acetyltransferase),1,-1.03,61.4
CREBBP (CREB binding lysine acetyltransferase),2,-0.318,75.6
CREBBP (CREB binding lysine acetyltransferase),3,-0.223,77.4
LRRC36 (leucine rich repeat containing 36),1,1.52,112
LRRC36 (leucine rich repeat containing 36),2,-1.13,59.4
LRRC36 (leucine rich repeat containing 36),3,-1.05,60.9
PDE1C (phosphodiesterase 1C),1,-1.19,58.2
PDE1C (phosphodiesterase 1C),2,-0.305,75.8
PDE1C (phosphodiesterase 1C),3,-0.708,67.8
CDC27 (cell division cycle 27),1,-0.615,69.6
CDC27 (cell division cycle 27),2,-0.514,71.7
CDC27 (cell division cycle 27),3,-1.81,46
FAM107A (family with sequence similarity 107 member A),1,-1.88,44.4
FAM107A (family with sequence similarity 107 member A),2,-0.424,73.5
FAM107A (family with sequence similarity 107 member A),3,0.0435,82.8
ACTBL2 (actin beta like 2),1,-1.09,60.1
ACTBL2 (actin beta like 2),2,-1.69,48.3
ACTBL2 (actin beta like 2),3,-0.875,64.5
MCCC1 (methylcrotonyl-CoA carboxylase subunit 1),1,1.22,106
MCCC1 (methylcrotonyl-CoA carboxylase subunit 1),2,-1.26,56.8
MCCC1 (methylcrotonyl-CoA carboxylase subunit 1),3,1.28,107
RPL12 (ribosomal protein L12),1,-1.1,59.9
RPL12 (ribosomal protein L12),2,-2.35,35.2
RPL12 (ribosomal protein L12),3,0.0885,83.6
MRPS2 (mitochondrial ribosomal protein S2),1,-0.0394,81.1
MRPS2 (mitochondrial ribosomal protein S2),2,0.0211,82.3
MRPS2 (mitochondrial ribosomal protein S2),3,-1.94,43.3
PRLHR (prolactin releasing hormone receptor),1,3.14 (active),144
PRLHR (prolactin releasing hormone receptor),2,0.705,95.9
PRLHR (prolactin releasing hormone receptor),3,-1.8,46.1
SLC45A3,1,-1.06,60.8
SLC45A3,2,-0.488,72.2
SLC45A3,3,-0.385,74.2
TCF7 (transcription factor 7),1,3.94 (active),160
TCF7 (transcription factor 7),2,-2.45,33.1
TCF7 (transcription factor 7),3,-0.718,67.6
MEX3B (mex-3 RNA binding family member B),1,0.792,97.6
MEX3B (mex-3 RNA binding family member B),2,-1.02,61.5
MEX3B (mex-3 RNA binding family member B),3,1.22,106
OR2W1 (olfactory receptor family 2 subfamily W member 1),1,0.14,84.7
OR2W1 (olfactory receptor family 2 subfamily W member 1),2,4.44 (active),170
OR2W1 (olfactory receptor family 2 subfamily W member 1),3,0.833,98.4

Only “total luciferase, % of control”, for 4 of the entries above:
MCCC1 (methylcrotonyl-CoA carboxylase subunit 1) #3	107
RPL12 (ribosomal protein L12) #1	59.9
RPL12 (ribosomal protein L12) #2	35.2
RPL12 (ribosomal protein L12) #3	83.6
